US20250092058A1 (priority 2018, published 2025)

What was measured:
HCT116 = assay: cells; format: cell-based; conditions: Homo sapiens, HCT-116
in vitro = conditions: human
HeLa = assay: cells; format: cell-based; conditions: Homo sapiens
A549 = assay: cells; format: cell-based; conditions: Homo sapiens
CRC PDX27454 tumors = conditions: in vivo, ip
Description: Colorectal cancer (CRC) patient-derived xenograft (PDX) models were used to evaluate their in vivo antitumor activity. […] Treatments were administered weekly for four weeks on days 0, 7, 14 and 21 and tumor volumes and individual body weights were monitored.
Human xenograft tumors used. In this invention disclose, human SW620 (colorectal), HT29 (colorectal) and HT-3 (retinoblastoma) cancer cell line-established xenograft tumors were used. Human tumor cell line-derived xenograft tumors are initially established by subcutaneously injecting 2-5×10^6 cultured cancer cells in a volume of 100-150 p L medium into the flank area of severe combined immunodeficiency (SCID) mice. The derived tumors are then passed a couple of generations in mice by transplanting 30-50 mg non-necrotic tumor mass via a trocar for experiments or maintenance. […] PDX tumors were originally established on severe Combined Immunodeficiency (SCID) mice from pancreatic and colorectal cancer patient tumor tissues obtained from metastatic sites of the disease in the clinic.
Specifically, PDX tumors were originally established on severe Combined Immunodeficiency (SCID) mice from pancreatic and colorectal cancer patient tumor tissues obtained from metastatic sites of the disease in the clinic. […] The vehicle is the same think aqueous suspension without drug. […]

HepG2 = assay: cells; format: cell-based; conditions: Homo sapiens

CC[C@@]1(O)C(=O)OCc2c1cc1n(c2=O)Cc2c-1nc1cc3c(cc1c2-c1ccc(F)c(OC)c1)OCO3 [Compound 7h]
IC50 (HCT116): 0.0361 ± 0.0017 µM
viability (in vitro): > 90%
IC50 (HeLa): 0.0729 ± 0.0009 µM
IC50 (A549): 0.0337 ± 0.001 µM
mouse body weights (CRC PDX27454 tumors): stable mouse body weights
IC50 (HepG2): 0.137 ± 0.0057 µM
